Some of these results come from one statement about several compounds together.
Columns and labels:
Assay type in all cases: cell-based, human
BxPC3 cells [1] = assay: Cell proliferation (MTT) assay, BxPC3; conditions: BxPC3, 72 h, nanocarriers 40 wt. % P1A1, equivalent P1A1 concentration, read-out: IC50, reduced cell viability
PANC-1 cells = assay: Cell proliferation (MTT) assay, PANC-1; conditions: PANC-1, 72 h, nanocarriers 40 wt. % P1A1, equivalent P1A1 concentration, read-out: IC50, reduced cell viability
BxPC3 cells [2] = assay: Flow cytometry cell cycle analysis; conditions: BxPC3, 48 h
Method: BxPC3 cells were treated with P1A1@MSNLP-COOH-LIP10, P1A1, or MSNLP-COOH-LIP10 for 48 h at the indicated concentrations. Cells were gently trypsinized, washed in PBS, fixed in ice-cold EtOH:PBS (1:1) at equivalent cell concentrations, and stored at −20° C. Cells were washed with PBS, stained using FxCycle PI/RNase staining solution (Molecular Probes, Eugene, Oreg.) and assessed by flow cytometry using an Accuri C6 (BD Biosciences, San Jose, Calif.). Data was analyzed using Modfit software v3.3.

With “[PtCl(en)(N-[acridin-9-ylaminoethyl]-N-methylpropionamidine)] dinitrate salt [Compound P1A1]” the IC50 (BxPC3 cells [1]) was 300 to 800 nM, the IC50 (PANC-1 cells) was 300 to 800 nM and the “maximum level of S phase arrest (of the cell population)” value (BxPC3 cells [2]) was > 80%.

From patent US20190290685A1, “COMPOSITIONS AND ASSOCIATED METHODS OF MESOPOROUS NANOPARTICLES COMPRISING PLATINUM-ACRIDINE MOLECULES” (Wake Forest University, priority 2016, published 2019)
